The other results are listed elsewhere or left out.
Tests used:
Test in all cases: log2 fold change, soluble protein after heating vs DMSO (PISA); higher = thermal stabilisation; K562 cells, 10 uM, 30 min; active = over 0.2 and 3.5 SD of the protein, either way, in both replicates (recomputed)
[1] = compound: NC(=O)Nc1cc(-c2cccc(F)c2)sc1C(=O)N[C@H]1CCCNC1
Summary of the method: (§1)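 K562 cells at 2×10^6 cells/mL were given 10 μM compound for 30 min. Aliquots then went through 3 min of heating across 48°C-58°C, were pooled, and were extracted in PBS with 0.5% NP-40 at 4°C, and the supernatant after 21,000xg for 90 min was quantified by TMTpro 16plex LC-MS/MS with channel sums equalised. Thermal stability relative to control samples, from duplicates, is given as log2 fold change.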

Amino acid sequences for entries named in this document (tags omitted). A change or cut given only in a name is not applied to a line headed by its entry.
UniProt Q8NEZ2: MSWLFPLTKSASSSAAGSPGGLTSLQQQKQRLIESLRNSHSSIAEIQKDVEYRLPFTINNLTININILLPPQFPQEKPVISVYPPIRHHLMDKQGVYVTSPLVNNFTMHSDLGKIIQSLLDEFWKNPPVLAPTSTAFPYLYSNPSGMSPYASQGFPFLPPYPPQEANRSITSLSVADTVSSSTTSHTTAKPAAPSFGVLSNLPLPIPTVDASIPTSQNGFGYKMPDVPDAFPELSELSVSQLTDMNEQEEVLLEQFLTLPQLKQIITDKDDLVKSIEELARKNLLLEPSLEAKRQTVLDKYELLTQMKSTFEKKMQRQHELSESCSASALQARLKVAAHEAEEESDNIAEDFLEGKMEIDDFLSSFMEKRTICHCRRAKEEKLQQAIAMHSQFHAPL
UniProt P40337, whole entry, looked up: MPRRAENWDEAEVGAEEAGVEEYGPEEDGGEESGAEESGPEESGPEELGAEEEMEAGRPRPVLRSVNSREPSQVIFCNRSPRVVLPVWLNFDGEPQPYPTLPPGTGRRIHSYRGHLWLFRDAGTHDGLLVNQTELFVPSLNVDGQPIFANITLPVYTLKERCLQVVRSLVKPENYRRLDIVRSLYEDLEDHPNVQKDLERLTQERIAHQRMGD
UniProt Q9C0J8: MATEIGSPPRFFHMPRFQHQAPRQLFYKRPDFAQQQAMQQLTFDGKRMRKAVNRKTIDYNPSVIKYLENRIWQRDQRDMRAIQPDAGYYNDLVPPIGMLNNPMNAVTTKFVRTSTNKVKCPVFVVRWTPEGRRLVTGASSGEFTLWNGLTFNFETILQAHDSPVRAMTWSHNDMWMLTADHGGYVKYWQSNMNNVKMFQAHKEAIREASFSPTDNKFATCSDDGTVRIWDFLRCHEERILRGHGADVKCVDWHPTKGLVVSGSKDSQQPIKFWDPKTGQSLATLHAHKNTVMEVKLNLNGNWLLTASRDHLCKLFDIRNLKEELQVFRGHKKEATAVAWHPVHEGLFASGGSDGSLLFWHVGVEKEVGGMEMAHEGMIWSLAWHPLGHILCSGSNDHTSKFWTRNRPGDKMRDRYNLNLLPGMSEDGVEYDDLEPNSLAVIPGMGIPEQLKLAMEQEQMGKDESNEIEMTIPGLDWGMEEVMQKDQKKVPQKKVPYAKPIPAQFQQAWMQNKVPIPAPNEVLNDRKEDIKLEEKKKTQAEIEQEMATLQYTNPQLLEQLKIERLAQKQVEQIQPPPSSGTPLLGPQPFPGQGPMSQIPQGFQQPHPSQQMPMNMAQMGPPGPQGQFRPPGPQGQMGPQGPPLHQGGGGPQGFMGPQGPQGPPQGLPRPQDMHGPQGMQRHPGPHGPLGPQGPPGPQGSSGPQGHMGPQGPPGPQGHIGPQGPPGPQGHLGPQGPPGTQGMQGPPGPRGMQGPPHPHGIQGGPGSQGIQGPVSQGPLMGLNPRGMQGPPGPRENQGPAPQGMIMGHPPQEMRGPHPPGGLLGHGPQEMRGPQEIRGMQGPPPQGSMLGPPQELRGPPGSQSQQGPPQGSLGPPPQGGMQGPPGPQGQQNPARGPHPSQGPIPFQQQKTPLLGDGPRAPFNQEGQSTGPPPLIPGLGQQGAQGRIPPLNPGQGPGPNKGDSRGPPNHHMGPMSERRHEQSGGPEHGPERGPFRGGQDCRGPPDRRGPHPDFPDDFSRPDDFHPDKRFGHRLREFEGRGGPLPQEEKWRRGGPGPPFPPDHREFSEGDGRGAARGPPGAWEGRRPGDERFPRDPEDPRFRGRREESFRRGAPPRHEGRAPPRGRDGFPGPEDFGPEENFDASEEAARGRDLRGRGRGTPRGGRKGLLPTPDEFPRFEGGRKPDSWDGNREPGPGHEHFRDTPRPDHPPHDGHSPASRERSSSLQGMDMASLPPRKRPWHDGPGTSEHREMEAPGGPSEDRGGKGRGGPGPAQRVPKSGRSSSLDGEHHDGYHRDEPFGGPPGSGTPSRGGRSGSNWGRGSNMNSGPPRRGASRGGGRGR
UniProt O75351, whole entry, looked up: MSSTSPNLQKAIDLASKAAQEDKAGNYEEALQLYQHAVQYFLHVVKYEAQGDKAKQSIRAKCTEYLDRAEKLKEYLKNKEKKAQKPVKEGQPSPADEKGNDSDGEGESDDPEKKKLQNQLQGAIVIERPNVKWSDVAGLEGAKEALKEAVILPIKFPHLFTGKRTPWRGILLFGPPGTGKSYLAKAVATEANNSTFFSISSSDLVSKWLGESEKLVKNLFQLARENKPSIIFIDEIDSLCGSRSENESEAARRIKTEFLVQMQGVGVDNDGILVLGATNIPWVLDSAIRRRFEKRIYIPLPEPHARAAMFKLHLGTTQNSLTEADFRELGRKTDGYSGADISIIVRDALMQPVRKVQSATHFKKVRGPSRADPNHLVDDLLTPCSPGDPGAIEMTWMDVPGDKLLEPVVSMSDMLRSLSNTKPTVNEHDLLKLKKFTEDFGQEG
UniProt Q5MNZ9: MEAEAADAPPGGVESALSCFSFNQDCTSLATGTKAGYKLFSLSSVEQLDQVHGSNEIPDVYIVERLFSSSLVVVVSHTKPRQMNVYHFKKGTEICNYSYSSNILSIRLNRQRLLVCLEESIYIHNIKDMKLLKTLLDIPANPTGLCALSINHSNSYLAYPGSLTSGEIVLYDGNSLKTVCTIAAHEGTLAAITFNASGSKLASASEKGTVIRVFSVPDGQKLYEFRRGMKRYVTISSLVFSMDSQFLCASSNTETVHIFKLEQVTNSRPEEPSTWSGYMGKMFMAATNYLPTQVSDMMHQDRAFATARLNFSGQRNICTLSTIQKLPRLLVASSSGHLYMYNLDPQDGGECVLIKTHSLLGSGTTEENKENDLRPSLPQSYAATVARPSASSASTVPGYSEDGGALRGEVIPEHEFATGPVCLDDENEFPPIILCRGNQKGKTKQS
UniProt Q96S15: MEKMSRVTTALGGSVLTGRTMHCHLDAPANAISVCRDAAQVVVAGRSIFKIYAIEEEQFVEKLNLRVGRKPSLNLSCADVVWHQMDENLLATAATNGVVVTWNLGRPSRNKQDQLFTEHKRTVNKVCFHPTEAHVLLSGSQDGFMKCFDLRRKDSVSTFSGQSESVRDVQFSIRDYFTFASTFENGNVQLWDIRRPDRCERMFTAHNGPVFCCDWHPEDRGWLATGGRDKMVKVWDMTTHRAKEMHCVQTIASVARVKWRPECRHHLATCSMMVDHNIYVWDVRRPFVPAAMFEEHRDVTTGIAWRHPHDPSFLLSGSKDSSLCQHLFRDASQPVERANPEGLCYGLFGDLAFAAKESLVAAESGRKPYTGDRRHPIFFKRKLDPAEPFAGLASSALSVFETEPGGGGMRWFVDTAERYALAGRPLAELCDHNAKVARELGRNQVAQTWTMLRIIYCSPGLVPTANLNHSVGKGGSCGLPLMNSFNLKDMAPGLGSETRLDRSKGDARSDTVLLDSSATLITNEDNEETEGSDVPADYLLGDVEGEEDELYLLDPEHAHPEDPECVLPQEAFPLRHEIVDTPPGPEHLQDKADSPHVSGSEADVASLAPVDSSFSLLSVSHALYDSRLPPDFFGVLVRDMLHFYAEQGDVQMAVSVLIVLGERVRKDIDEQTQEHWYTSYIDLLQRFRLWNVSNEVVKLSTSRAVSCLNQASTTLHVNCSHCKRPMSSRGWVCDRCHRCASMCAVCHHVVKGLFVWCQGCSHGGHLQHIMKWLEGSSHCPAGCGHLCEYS
UniProt O00401, whole entry, looked up: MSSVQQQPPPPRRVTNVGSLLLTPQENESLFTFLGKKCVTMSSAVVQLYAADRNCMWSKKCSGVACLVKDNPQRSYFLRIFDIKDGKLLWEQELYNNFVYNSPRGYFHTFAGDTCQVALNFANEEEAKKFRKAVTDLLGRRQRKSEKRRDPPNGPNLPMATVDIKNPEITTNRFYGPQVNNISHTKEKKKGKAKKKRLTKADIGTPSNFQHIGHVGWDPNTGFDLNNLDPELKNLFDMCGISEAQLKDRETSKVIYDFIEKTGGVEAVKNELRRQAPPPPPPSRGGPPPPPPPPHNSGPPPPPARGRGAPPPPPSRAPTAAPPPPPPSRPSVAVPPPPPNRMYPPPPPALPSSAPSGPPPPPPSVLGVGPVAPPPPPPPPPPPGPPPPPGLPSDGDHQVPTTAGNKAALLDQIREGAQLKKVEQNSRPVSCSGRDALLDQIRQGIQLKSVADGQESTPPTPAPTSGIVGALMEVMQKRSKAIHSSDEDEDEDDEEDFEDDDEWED
UniProt Q8N9V3: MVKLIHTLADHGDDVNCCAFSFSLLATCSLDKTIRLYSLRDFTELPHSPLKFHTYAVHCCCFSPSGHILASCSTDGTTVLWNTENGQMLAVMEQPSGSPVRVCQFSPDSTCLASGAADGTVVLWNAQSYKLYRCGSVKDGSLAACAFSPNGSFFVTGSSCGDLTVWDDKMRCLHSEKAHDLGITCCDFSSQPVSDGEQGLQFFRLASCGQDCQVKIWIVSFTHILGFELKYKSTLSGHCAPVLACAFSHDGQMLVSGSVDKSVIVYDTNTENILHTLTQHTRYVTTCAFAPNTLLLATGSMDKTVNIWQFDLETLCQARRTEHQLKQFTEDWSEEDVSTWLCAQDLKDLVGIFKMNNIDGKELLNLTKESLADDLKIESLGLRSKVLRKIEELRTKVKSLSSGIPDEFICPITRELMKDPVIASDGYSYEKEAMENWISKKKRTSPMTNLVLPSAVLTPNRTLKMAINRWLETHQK
UniProt Q9H7M9, whole entry, looked up: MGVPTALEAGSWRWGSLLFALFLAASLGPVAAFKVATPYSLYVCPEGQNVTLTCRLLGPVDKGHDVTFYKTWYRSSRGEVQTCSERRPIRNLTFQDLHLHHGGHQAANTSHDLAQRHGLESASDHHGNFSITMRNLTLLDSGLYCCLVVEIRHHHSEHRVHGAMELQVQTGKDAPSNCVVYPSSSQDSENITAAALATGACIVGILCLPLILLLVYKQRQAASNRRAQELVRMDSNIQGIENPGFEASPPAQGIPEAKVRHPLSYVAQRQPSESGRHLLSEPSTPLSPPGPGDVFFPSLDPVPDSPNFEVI

[2] = compound: NC(=O)c1cnc(N[C@@H]2CCCC[C@@H]2N)nc1Nc1cccc(-n2nccn2)c1
Summary of the method: as §1

[3] = compound: NC1(c2ccc(-c3nc4ccn5c(=O)[nH]nc5c4cc3-c3ccccc3)cc2)CCC1
Summary of the method: as §1

[4] = compound: NCC(=O)Nc1ccc(-n2nc(C(F)(F)F)cc2-c2ccc3c(ccc4ccccc43)c2)cc1
Summary of the method: as §1

entinostat = compound: Nc1ccccc1NC(=O)c1ccc(CNC(=O)OCc2cccnc2)cc1 [entinostat]
Summary of the method: as §1

vorinostat = compound: O=C(CCCCCCC(=O)Nc1ccccc1)NO [vorinostat]
Summary of the method: as §1

silmitasertib = compound: O=C(O)c1ccc2c(c1)nc(Nc1cccc(Cl)c1)c1ccncc12 [silmitasertib]
Summary of the method: as §1

[5] = compound: O=C1NC(=O)C(c2cnc3ccccn23)=C1c1cn2c3c(cc(F)cc13)CN(C(=O)N1CCCCC1)CC2
Summary of the method: as §1

citarinostat = compound: O=C(CCCCCCNC(=O)c1cnc(N(c2ccccc2)c2ccccc2Cl)nc1)NO [citarinostat]
Summary of the method: as §1

[6] = compound: c1cc(OCCN2CCCCC2)cc(-c2n[nH]c3ccc(-c4nnc[nH]4)cc23)c1
Summary of the method: as §1

entospletinib = compound: c1cn2cc(-c3ccc4cn[nH]c4c3)nc(Nc3ccc(N4CCOCC4)cc3)c2n1 [entospletinib]
Summary of the method: as §1

Measured: log2 fold change

VPS37A (UniProt Q8NEZ2)
inactive: [1] -0.066 | [2] -0.021 | [3] -0.317 | [4] -0.051 | entinostat 0.121 | vorinostat 0.113 | silmitasertib 0.02 | [5] -0.198

VHL (UniProt P40337)
inactive: [1] -0.062 | [2] 0.047 | entinostat -0.07 | citarinostat -0.275 | [6] 0.027 | entospletinib 0.181

WDR33 (UniProt Q9C0J8)
inactive: [1] -0.072 | [2] -0.212 | [3] -0.01 | [4] -0.006 | entinostat -0.019 | citarinostat -0.027 | silmitasertib 0.006 | [5] 0.278 | [6] -0.12 | entospletinib 0.057

VPS4B (UniProt O75351)
inactive: [1] -0.05 | [2] -0.052 | [3] -0.137 | [4] -0.093 | entinostat 0.029 | vorinostat 0 | citarinostat 0.024 | silmitasertib 0.018 | [5] -0.037 | [6] -0.033 | entospletinib 0.01

WIPI1 (UniProt Q5MNZ9)
inactive: [1] 0.057 | [2] -0.064 | [3] -0.138 | entinostat 0.019 | vorinostat -0.07 | citarinostat 0.118 | silmitasertib -0.052 | [5] 0.002 | [6] 0.023 | entospletinib -0.147

WDR24 (UniProt Q96S15)
inactive: [1] 0.001 | [2] -0.217 | entinostat -0.014 | vorinostat 0.164 | citarinostat 0.073 | [5] 0.273 | [6] -0.091 | entospletinib 0.055

WASL (UniProt O00401)
inactive: [1] -0.015 | [2] -0.097 | [3] -0.06 | [4] 0.043 | entinostat 0.069 | vorinostat 0.048 | citarinostat -0.021 | silmitasertib 0.06 | [5] -0.126 | [6] 0.028 | entospletinib 0.027

WDSUB1 (UniProt Q8N9V3)
inactive: [1] -0.037 | [2] -0.054 | [3] -0.05 | [4] -0.017 | entinostat -0.085 | vorinostat -0.003 | citarinostat 0.032 | silmitasertib 0.001 | [5] -0.09 | [6] 0.035 | entospletinib -0.011

WARS1 (UniProt G3V277)
inactive: [1] 0.029 | [2] -0.52 | [3] -0.131 | [4] -0.302 | entinostat 0.025 | vorinostat -0.047 | silmitasertib 0.001

VSIR (UniProt Q9H7M9)
inactive: [1] 0.002 | [3] -0.011 | [4] 0.027 | entinostat -0.05 | vorinostat -0.097 | citarinostat 0.029 | silmitasertib -0.053 | [5] 0.022 | [6] 0.013 | entospletinib -0.023

From the supplement of paper PMC10849652
